# Assay results: PubChem BioAssay AID540335 (Broad Institute, 2011)
# The campaign covered roughly 1,300 compounds. About 270 (21%) were called active.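 How the source made its calls: active means dose-dependent rise or fall in viability, either side of zero, with half-maximal concentration at or below a set limit; inconclusive means flat curve at 30 to 70% viability loss, or poor fit; inactive means flat within 30% either way, or potency beyond limit.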 Some of the results follow. Results with a measured potency or affinity are listed apart.
# Test: A375 melanoma cell viability reduction, dose response, counter-screen for MITF modulator project, cherry-pick samples, set 2 (AID 540335);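 further: A375 human melanoma cells which do not depend on MITF; 0% = median of neutral control wells and 100% = double that signal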
# Conditions: CellTiter-Glo ATP luminescence, 24 h; at 35 µM (top of the series)
row,Structure (SMILES),"activity change, negative = decreased viability"
1,C/C(=N/Nc1nc(C)c(C)s1)c1cccc([N+](=O)[O-])c1,inactive: 1.49%
2,CCCCOc1ccc(-c2ncc([N+](=O)[O-])cn2)cc1,inactive: 8.06%
3,Cn1c(=O)c([N+](=O)[O-])c(-n2ccnc2)c2ccccc21,inactive: -0.212%
4,O=C(CN1CCCCC1)Nc1scc2c1c(=O)oc1ccccc12,inactive: 4.14%
5,O=C1CN(c2ccccc2)C(=S)N1C(=O)c1ccccc1,inactive: 11.4%
6,COc1ccccc1-c1nc(-c2ccc(C)nc2OC)no1,inactive: 10.9%
7,Cc1cc(O)ccc1Nc1nc(-c2cccnc2)cs1,inactive: -1.4%
8,O=C(/C=C/c1ccccc1Cl)NC1CCCCC1,inactive: 7.8%
9,COc1ccc(C(=O)/C=C(\C)Nc2ccc3c(c2)OCO3)cc1,inactive: 0.308%
10,COc1cc(SC)ccc1C(=O)Nc1ncc(C)s1,inactive: -13.6%
11,CS(=O)(=O)N1CCN(c2nc3ccc(Cl)cc3s2)CC1,inactive: 1.7%
12,O=S1(=O)CCC(NC(=S)SCc2ccccc2Br)C1 (centres undefined),inactive: 3.82%
13,O=C(NCc1cccs1)c1nc2c(nnn2Cc2ccccc2Cl)c(=O)[nH]1,inactive: -21.2%
14,Cc1ccc(NC(=O)CCl)cc1S(=O)(=O)N1CCCCCC1,inactive: -23.1%
15,Cc1ccc(OCC(=O)N/N=C/c2ccc([N+](=O)[O-])o2)cc1,inactive: -2.81%
16,N#Cc1nc(/C=C/c2ccccc2)oc1NCCCN1CCOCC1,inactive: 4.72%
17,Cc1ccccc1C(=O)N/N=C/c1ccc([N+](=O)[O-])s1,inactive: -20.2%
18,O=C1CN(C(=O)Cn2ncc(Cl)c(Cl)c2=O)c2ccccc2N1,inactive: 36.1%
19,CC(=O)Oc1c(C(=O)c2nnc(C)o2)c(=O)n(Cc2ccccc2)c2ccccc12,inactive: -8.69%
20,O=C(Nc1ccc(S(=O)(=O)NC2=NCCCCC2)cc1)c1ccc([N+](=O)[O-])s1,inactive: -24.7%
21,O=C1c2ccccc2CN1c1ccccc1,inactive: -6.69%
22,CC1Cc2ccccc2N1C(=O)c1ccc(Br)o1 (centres undefined),inactive: -36.8%
23,COc1cc(CN2CCC(C(N)=O)CC2)ccc1OCc1ccccc1,inactive: 0.046%
24,O=C(O)c1cccc(NC(=O)c2cccc(NC(=O)C3CCCO3)c2)c1 (centres undefined),inactive: 0.815%
25,Cc1ccc(NC(=O)C2CCN(S(=O)(=O)c3c(C)noc3/C=C/c3ccco3)CC2)nc1,inactive: -20.7%

# Some of these compounds in order of SMILES length, ascending:
row,Structure (SMILES),"activity change, negative = decreased viability"
8,O=C(/C=C/c1ccccc1Cl)NC1CCCCC1,inactive: 7.8%
23,COc1cc(CN2CCC(C(N)=O)CC2)ccc1OCc1ccccc1,inactive: 0.046%
9,COc1ccc(C(=O)/C=C(\C)Nc2ccc3c(c2)OCO3)cc1,inactive: 0.308%
15,Cc1ccc(OCC(=O)N/N=C/c2ccc([N+](=O)[O-])o2)cc1,inactive: -2.81%
20,O=C(Nc1ccc(S(=O)(=O)NC2=NCCCCC2)cc1)c1ccc([N+](=O)[O-])s1,inactive: -24.7%
25,Cc1ccc(NC(=O)C2CCN(S(=O)(=O)c3c(C)noc3/C=C/c3ccco3)CC2)nc1,inactive: -20.7%

# The listing continues:

row,Structure (SMILES),"activity change, negative = decreased viability"
1,COc1ccc(NC(=O)c2cc3ccccc3[nH]2)cc1,inactive: 1.75%
2,COc1ccc(/C=N/NC(=O)Cc2cccs2)cc1,inactive: 14.8%
3,Cc1nc2cc(NC(=O)Nc3cccc([N+](=O)[O-])c3)ccc2n1C,inactive: 6.25%
4,O=C1CCC2S/C(=C/Nc3ccc(C(F)(F)F)cc3)C(=O)N12 (centres undefined),inactive: 15.7%
5,N#CC(C#N)=C1C=CC=CN1/C(=C\c1ccco1)C(=O)c1ccc(Cl)cc1,inactive: 75.5%
6,COc1ccc(/C=C2\SC(=O)N(CCCC(=O)Nc3cc(Cl)ccc3C(=O)O)C2=O)cc1,inactive: 10.5%
7,CN(C)c1ccc(NC(=O)Nc2ccc3c(c2)nnn3C)cc1,inactive: 6.32%
8,O=C(CCl)Nc1cn(-c2ccccc2)nc1-c1ccccc1,inactive: 14.5%
9,CN(c1ccc2nc3ccccc3c(=O)n2n1)C1CCCCC1,inactive: -34.4%
10,CCc1ccccc1NC(=O)CN(C)C(=O)Cn1ncc(Cl)c(Cl)c1=O,inactive: 80.5%
11,O=C(CSCC(=O)Nc1ccccc1)N/N=C/c1c(O)ccc2ccccc12,inactive: -31.7%
12,Cn1cc([N+](=O)[O-])c(C(=O)Nc2nc(-c3ccc(Cl)cc3)cs2)n1,inactive: -6.64%
13,COc1ccc(C(=O)Nc2ccc3ccccc3c2)cc1OC,inactive: 10.4%
14,Cc1ccc2nc(NC(=O)c3ccc(Br)o3)sc2c1,inactive: -0.809%
15,O=C(CCl)Nc1cccc(S(=O)(=O)N2CCCCCC2)c1,inactive: -32%
16,Clc1c(-c2ccccc2)nc2ccccn12,inactive: 7.16%
17,Cc1cc(C(F)(F)F)c2c(N)c(C(=O)Nc3cc(C)on3)sc2n1,inactive: -4.72%
18,CC(/C=N/NC(=O)c1cc(-c2ccncc2)nc2ccccc12)=C\c1ccco1,inactive: 14.4%
19,C=CCn1c(C)cc(C(=O)Cn2ncc(Cl)c(Cl)c2=O)c1C,inactive: -34.1%
20,Cc1nc2ccccn2c1C(=O)N/N=C/c1ccc([N+](=O)[O-])o1,inactive: -19.2%
21,Cc1ccc(-c2cn(-c3ccc(SC(F)F)cc3)c3[n+]2CCC3)cc1,inactive: -14.1%
22,Cc1ccc(NC(=O)c2ccc(OCC3CCCO3)cc2)c(C)c1 (centres undefined),inactive: -0.884%
23,CN1CCN(C2=C(NS(=O)(=O)c3ccccc3)C(=O)c3ccccc3C2=O)CC1,inactive: -10%
24,Cc1ccc2c(c1)COc1c3ccc(C(=O)O)cc3nn1-2,inactive: -25.5%
25,CCOc1ccc(OCc2ccc(C(=O)N/N=C(\C)c3ccccn3)cc2)cc1,inactive: -13.6%

# Part of the list above, reformatted:
row	Structure (SMILES)	activity change, negative = decreased viability
16	Clc1c(-c2ccccc2)nc2ccccn12	inactive: 7.16%
17	Cc1cc(C(F)(F)F)c2c(N)c(C(=O)Nc3cc(C)on3)sc2n1	inactive: -4.72%

# Following part:

row,Structure (SMILES),"activity change, negative = decreased viability"
1,CCOc1ccccc1NC(=O)C1C2CCC(O2)C1C(=O)O (centres undefined),inactive: 6.49%
2,COCCN(C(=O)CCl)C(C(=O)NC1CCCCC1)c1ccccc1C (centres undefined),inactive: 11%
3,O=C(NCc1ccco1)c1nc2c(nnn2Cc2ccccc2Cl)c(=O)[nH]1,inactive: -24.3%
4,Cc1nc2ccc(NC(=O)c3ccco3)cc2nc1C,inactive: 14.5%
5,COc1ccc(O)c(/C=N/NC(=O)c2ccc(CSc3nc(C)cc(C)n3)cc2)c1,inactive: -33.7%
6,Cc1nn(C)cc1/C=C/C(=O)c1cccs1,inactive: 8.61%
7,COCCn1c(C)cc(C(=O)COC(=O)c2ccccc2Br)c1C,inactive: -16.4%
8,CC(=O)c1cccc(Nc2nc(-c3cccnc3)cs2)c1,inactive: 1.85%
9,COc1ccc(C(=O)Nc2ccc3c(c2)OCCO3)cc1Br,inactive: 2.12%
10,Cc1cn(CCC(=O)Nc2ccccc2N2CCOCC2)c2ccccc12,inactive: 9.99%
11,CCCCOc1ccc(-c2nnn(C(C)(C)C(=O)OC)n2)cc1,inactive: -1.6%
12,COc1cccc(-c2csc3ncnc(Sc4nnnn4C)c23)c1,inactive: 1.76%
13,CC(=O)Cn1ncc(Br)c(Br)c1=O,inactive: 23.4%
14,Cc1ccc2cc(NC(=O)Cc3ccccc3)ccc2n1,inactive: 2.73%
15,CCOC(=O)N1C(=O)[C@](CC)(c2ccccc2)N1C(=O)OCC,inactive: -8.51%
16,O=C(Nc1ccccc1Cl)Nc1cccc2cccnc12,inactive: 4.22%
17,Cc1ccc(-c2c[n+](Cc3ccc(Cl)cc3)c3n2CCC3)cc1,inactive: -3.64%
18,CC(C)C(=O)NC(c1ccco1)c1ccc2cccnc2c1O (centres undefined),inactive: -33.6%
19,CCOC(=O)c1nnn(-c2ccc([N+](=O)[O-])cc2[N+](=O)[O-])c1C,inactive: -24.6%
20,c1ccc(OCc2nc3ccccc3[nH]2)cc1,inactive: -2.76%
21,CCn1c(=O)c(C(=O)NCc2ccccc2Cl)c(O)c2ccccc21,inactive: 9.07%
22,O=C(CCl)Nc1ccc(-c2ccccc2)cc1,inactive: -39.9%
23,O=C(Nc1ccccn1)c1ccc(Br)s1,inactive: -8.96%
24,CCN1c2ccccc2NC2N=C(OC)C(c3ccccc3)C21 (centres undefined),inactive: -35.9%
25,N/C(CS(=O)(=O)c1ccccn1)=N\OC(=O)c1ccccc1Cl,inactive: 4.11%

row,Structure (SMILES),"activity change, negative = decreased viability"
1,CCc1cc(C=NC2CCCCC2)c(O)s1,inactive: -1.17%
2,O=C(COc1ccc2c(c1)CCC2)N1CCc2ccccc21,inactive: 8.68%
3,Cc1ccc(SCCC(=O)N2CCC(C)CC2)cc1,inactive: 13.1%
4,O=C(CCl)N(c1ccccc1)c1c[nH]c2ccccc12,inactive: -4.62%
5,COc1cc(NC(=O)COc2cc(O)c3c(c2)OC(C)(C)CC3=O)cc(OC)c1OC,inactive: -22.9%
6,N/C(=N\OC(=O)c1ccc([N+](=O)[O-])cc1)c1ccc(Br)cc1,inactive: 9.06%
7,CCN1CCCC1CNC(=O)c1ccc2c(c1)NC(=O)/C(=C\c1ccc(C)cc1)S2 (centres undefined),inactive: -95.9%
8,C=CCNC1=C(Cl)C(=O)c2ccccc2C1=O,inactive: -14.5%
9,COc1cc(CN2CCC(C(=O)NCCC(C)C)CC2)ccc1OCc1ccccc1,inactive: 5.82%
10,CCn1c(=O)c([N+](=O)[O-])c(Cl)c2ccccc21,inactive: 5.11%
11,O=C(NCC1CCCCC1)C1(CC2CC(c3cccc(Br)c3)=NO2)CCNCC1 (centres undefined),inactive: -96.6%
12,O=C(CSCc1c(F)cccc1F)Nc1ccccc1,inactive: -2.96%
13,O=C(Nc1ccc([N+](=O)[O-])cc1)c1ccccc1,inactive: -0.714%
14,CCSC1(SCC)N=C(N)C2(C#N)C(c3ccc(F)cc3)C12C#N (centres undefined),inactive: -35.4%
15,CC(=O)c1ccc(Sc2nnnn2-c2ccccc2)c([N+](=O)[O-])c1,inactive: -8.73%
16,N#C/C(=C\c1c[nH]c2ccccc12)C(=O)NC1CC1,inactive: 8.06%
17,CC(C)CC(=O)/C=C/n1c(=S)oc2ccccc21,inactive: -7.52%
18,CCCN(CC(=O)Nc1ccccc1C)C(=O)CCl,inactive: -5.68%
19,N#Cc1ccc(-c2cccnc2)nc1SCC(=O)c1ccccc1,inactive: -3.5%
20,O=C1N=C(N2CCOCC2)S/C1=C\C=C/c1ccccc1,inactive: 7.67%
21,O=C(Cc1ccccc1)NCC(=O)N/N=C/c1ccc([N+](=O)[O-])s1,inactive: -18.9%
22,CCOC(=O)CCc1ccc(NC(=O)/C=C/c2ccc([N+](=O)[O-])o2)cc1,inactive: -26.9%
23,COc1ccc(C(=O)/C=C/Nc2ccccn2)cc1,inactive: -33.8%
24,O=C(Nc1ccc2c(c1)OCCO2)c1cccc(Cl)c1Cl,inactive: 4.29%
